The values below come from ChEMBL document CHEMBL1125008 (J Med Chem, 1990).

The assay has as its target T1, Serotonin 3 receptor (5HT3) (Mus musculus, UniProt Q9JHJ5+P23979).
T1 sequence (Q9JHJ5 whole entry): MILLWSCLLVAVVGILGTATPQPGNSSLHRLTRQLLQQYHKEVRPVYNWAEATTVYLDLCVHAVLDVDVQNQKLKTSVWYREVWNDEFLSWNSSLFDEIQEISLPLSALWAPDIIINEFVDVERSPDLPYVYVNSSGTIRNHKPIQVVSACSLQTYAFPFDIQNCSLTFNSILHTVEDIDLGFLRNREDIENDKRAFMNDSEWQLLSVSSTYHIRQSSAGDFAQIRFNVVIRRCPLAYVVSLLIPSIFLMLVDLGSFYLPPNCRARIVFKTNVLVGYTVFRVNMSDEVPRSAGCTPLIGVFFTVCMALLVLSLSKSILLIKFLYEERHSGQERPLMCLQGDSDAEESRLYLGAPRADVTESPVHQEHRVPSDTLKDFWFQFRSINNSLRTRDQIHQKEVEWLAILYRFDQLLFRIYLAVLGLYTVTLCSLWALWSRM
T1 sequence (P23979 whole entry): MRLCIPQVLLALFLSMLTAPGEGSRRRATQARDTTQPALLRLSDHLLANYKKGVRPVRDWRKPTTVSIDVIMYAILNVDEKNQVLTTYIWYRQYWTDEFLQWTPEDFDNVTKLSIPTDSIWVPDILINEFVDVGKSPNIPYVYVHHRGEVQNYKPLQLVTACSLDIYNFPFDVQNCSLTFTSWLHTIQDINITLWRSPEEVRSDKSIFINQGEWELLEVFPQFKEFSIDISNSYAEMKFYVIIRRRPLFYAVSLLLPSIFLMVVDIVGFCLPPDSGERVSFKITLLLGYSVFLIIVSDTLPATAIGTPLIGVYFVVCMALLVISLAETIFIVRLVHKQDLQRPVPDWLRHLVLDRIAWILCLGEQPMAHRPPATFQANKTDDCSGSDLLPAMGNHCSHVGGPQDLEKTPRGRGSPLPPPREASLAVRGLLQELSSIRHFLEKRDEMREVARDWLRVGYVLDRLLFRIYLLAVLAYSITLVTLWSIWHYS
Put plainly: The binding affinity was measured for 5-hydroxytryptamine 3 receptor on NG 108-15 cell line of mouse neuroblastoma-glioma cells in presence of [3H]5 radioligand (in vitro). Format: cell-based.

As for `CN1CCN2c3ccccc3Cc3ccccc3C2C1` (stereo unspecified) [MIANSERIN], the Ki is on record as 252 nM.
